Assay results reported in patent US20190111164A1.

Biological target: dBSM (bovine)
Experiment: ELISA on model antigens (Tn-PAA, sTN-PAA, Tn-cluster, dBSM)

B1: 2F3 variant #6 (antibody, IgG1, V domains shown)
VH: QVQLLESGGGLVQPGGSLRLSCAASGFTFDSYAMSWVRQAPGKGLEWVSAISGSGASTYYADSVKGRFSISRDNSKNTLYLQMNSLRAEDTAVYYCAIRREYSGYAPFDYWGQGTLVIVSS
VL: DIVMTQTPSSLSASVGDRVTITCRASQGISSWLAWYQQKPEKAPRSLIYAASSLQSGVPSRFSGSGSGTDFTLTISSLQPEDFATYYCQQYISYPYTFGQGTKLEIK
For B1, the binding was “binds”.

These are yes or no findings as the source states them, for the method shown. A result given as binding can be weak or reduced; the word gives no strength.
